From patent US8530493B2, “Indolopyridines as Eg5 kinesin modulators” (4SC AG, priority 2006, dated 2013)
Some of these results come from one statement about several compounds together.

Biological target: T1, Eg5 kinesin motor domains (Homo sapiens, UniProt P52732)
T1 construct: The ATPase activity of Eg5 kinesin motor domains (Cytoskeleton, cat. No. EG01) can be used; purchased Cytoskeleton EG01
T1 sequence (P52732 18-359 limits assumed): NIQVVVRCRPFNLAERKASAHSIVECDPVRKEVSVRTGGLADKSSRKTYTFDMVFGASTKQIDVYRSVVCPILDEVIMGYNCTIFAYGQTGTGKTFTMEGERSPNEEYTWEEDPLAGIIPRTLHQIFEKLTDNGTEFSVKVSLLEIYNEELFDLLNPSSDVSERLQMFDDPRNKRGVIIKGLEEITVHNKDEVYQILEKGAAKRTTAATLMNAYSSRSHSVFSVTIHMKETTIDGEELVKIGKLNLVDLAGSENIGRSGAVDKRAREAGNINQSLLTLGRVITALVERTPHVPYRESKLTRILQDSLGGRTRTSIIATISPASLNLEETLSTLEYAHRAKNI
Experiment: ATPase activity of Eg5 kinesin motor domains (Malachite green)
Format: biochemical
Details: 300 μM ATP, 30 min, room temperature

Structure (SMILES)	Inhibition of Eg5 activity, −log IC50
COc1ccc2[nH]c3c(c2c1)C[C@@]1(C)C(=O)N(CCNC2CCC2)C(=O)N1[C@@H]3c1cccc(O)c1 (racemic) [Example 50, (3aSR,10RS)-2-(2-Cyclobutylamino-ethyl)-10-(3-hydroxy-phenyl)-6-methoxy-3a-methyl-3a,4,9,10-tetrahydro-2,9,10a-triaza-cyclopenta[b]fluorene-1,3-dione]	compounds are all ≧6.3 mol/l
CCNCCCN1C(=O)N2[C@H](c3cccc(O)c3)c3[nH]c4ccc(OC)cc4c3C[C@@]2(C)C1=O (racemic) [Example 51, (3aSR,10RS)-2-(3-Ethylamino-propyl)-10-(3-hydroxy-phenyl)-6-methoxy-3a-methyl-3a,4,9,10-tetrahydro-2,9,10a-triaza-cyclopenta[b]fluorene-1,3-dione]	compounds are all ≧6.3 mol/l
CCN(C)CCN1C(=O)N2[C@H](c3cccc(O)c3)c3[nH]c4ccc(OC)cc4c3C[C@@]2(C)C1=O (racemic) [Example 52, (3aSR,10RS)-2-[2-(Ethyl-methyl-amino)-ethyl]-10-(3-hydroxy-phenyl)-6-methoxy-3a-methyl-3a,4,9,10-tetrahydro-2,9,10a-triaza-cyclopenta[b]fluorene-1,3-dione]	compounds are all ≧6.3 mol/l
COc1ccc2[nH]c3c(c2c1)C[C@@]1(C)C(=O)N(CCNC2CC2)C(=O)N1[C@@H]3c1cccc(O)c1 (racemic) [Example 53, (3aSR,10RS)-2-(2-Cyclopropylamino-ethyl)-10-(3-hydroxy-phenyl)-6-methoxy-3a-methyl-3a,4,9,10-tetrahydro-2,9,10a-triaza-cyclopenta[b]fluorene-1,3-dione]	compounds are all ≧6.3 mol/l
COc1ccc2[nH]c3c(c2c1)C[C@@]1(C)C(=O)N(CCN(C)C)C(=O)N1[C@@H]3c1cccc(O)c1 (single isomer, unassigned) [Example 7b, (−)-2-(2-Dimethylamino-ethyl)-10-(3-hydroxy-phenyl)-6-methoxy-3a-methyl-3a,4,9,10-tetrahydro-2,9,10a-triaza-cyclopenta[b]fluorene-1,3-dione]	compounds are all ≧6.3 mol/l
